Record: PubChem BioAssay AID1259405 (NCATS, 2018)

Test: 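Mouse-designed siRNAs used to find CHO productivity engineering targets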 (primary screen)
System: Chinese hamster CHO-K1 ovary cells with stable secreted eGFP expression
Knock-down reagent: single siRNA against mouse genes, 0.8 pmol siRNA per well (2 µl of 400 nM stock)
Timing: 3 days
Read-out: 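Per-well intracellular GFP measured by laser scanning cytometry, plus viability from ATP luminescence, each relative to plate median of non-targeting control wells, in %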
Reading the numbers: GFP, % of control: higher = more GFP per well, higher productivity; viability (ATP), % of control: higher = more viable cells (more ATP)
Hit rule: 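Called active when intracellular GFP, relative to negative control, is at or above 120%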
The whole screen tested about 50,000 reagents; shown is an unselected part. Over the whole deposit, about 4,000 (8%) are marked active. 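Mouse siRNA library applied to hamster cells; one well for each siRNA.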 Unmarked entries are inactive. The numbers tell different reagents against one gene apart. Reagent sequences are not shown.

Rnf125 (ring finger protein 125) #1
- GFP, % of control: 82.7
- viability (ATP), % of control: 76.1

Rnf125 (ring finger protein 125) #2
- GFP, % of control: 36.2
- viability (ATP), % of control: 28.6

Rnf125 (ring finger protein 125) #3
- GFP, % of control: 67.5
- viability (ATP), % of control: 82.6

Nuf2 (NUF2, NDC80 kinetochore complex component) #1
- GFP, % of control: 61.6
- viability (ATP), % of control: 81.1

Nuf2 (NUF2, NDC80 kinetochore complex component) #2
- GFP, % of control: 58.5
- viability (ATP), % of control: 73.3

Nuf2 (NUF2, NDC80 kinetochore complex component) #3
- GFP, % of control: 86.2
- viability (ATP), % of control: 102

Crls1 (cardiolipin synthase 1) #1
- GFP, % of control: 53.2
- viability (ATP), % of control: 27.8

Crls1 (cardiolipin synthase 1) #2
- GFP, % of control: 60.8
- viability (ATP), % of control: 64.9

Crls1 (cardiolipin synthase 1) #3
- GFP, % of control: 46.9
- viability (ATP), % of control: 60.7

Drc10 (dynein regulatory complex subunit 10) #1
- GFP, % of control: 64.6
- viability (ATP), % of control: 42.6

Drc10 (dynein regulatory complex subunit 10) #2
- GFP, % of control: 77.6
- viability (ATP), % of control: 85.3

Drc10 (dynein regulatory complex subunit 10) #3
- GFP, % of control: 112
- viability (ATP), % of control: 103

Sycp3 (synaptonemal complex protein 3) #1
- GFP, % of control: 90.6
- viability (ATP), % of control: 104

Sycp3 (synaptonemal complex protein 3) #2
- GFP, % of control: 101
- viability (ATP), % of control: 118

Sycp3 (synaptonemal complex protein 3) #3
- GFP, % of control: 149 (active)
- viability (ATP), % of control: 141

Phxr2 (per-hexamer repeat gene 2) #1
- GFP, % of control: 48.1
- viability (ATP), % of control: 52.1

Phxr2 (per-hexamer repeat gene 2) #2
- GFP, % of control: 107
- viability (ATP), % of control: 73.5

Phxr2 (per-hexamer repeat gene 2) #3
- GFP, % of control: 107
- viability (ATP), % of control: 127

Kdm4d (lysine (K)-specific demethylase 4D) #1
- GFP, % of control: 69
- viability (ATP), % of control: 67.1

Kdm4d (lysine (K)-specific demethylase 4D) #2
- GFP, % of control: 86.6
- viability (ATP), % of control: 69.2

Kdm4d (lysine (K)-specific demethylase 4D) #3
- GFP, % of control: 103
- viability (ATP), % of control: 86.6

Il17a (interleukin 17A) #1
- GFP, % of control: 37
- viability (ATP), % of control: 40.3

Il17a (interleukin 17A) #2
- GFP, % of control: 61.6
- viability (ATP), % of control: 61.2

Il17a (interleukin 17A) #3
- GFP, % of control: 60.2
- viability (ATP), % of control: 58

Prrc1 (proline-rich coiled-coil 1) #1
- GFP, % of control: 105
- viability (ATP), % of control: 86.4

Prrc1 (proline-rich coiled-coil 1) #2
- GFP, % of control: 95
- viability (ATP), % of control: 67.2

Prrc1 (proline-rich coiled-coil 1) #3
- GFP, % of control: 104
- viability (ATP), % of control: 66.7

Megf6 (multiple EGF-like-domains 6) #1
- GFP, % of control: 87.2
- viability (ATP), % of control: 92.4

Megf6 (multiple EGF-like-domains 6) #2
- GFP, % of control: 135 (active)
- viability (ATP), % of control: 62.6

Megf6 (multiple EGF-like-domains 6) #3
- GFP, % of control: 60.2
- viability (ATP), % of control: 55.4

A830005F24Rik (RIKEN cDNA A830005F24 gene) #1
- GFP, % of control: 83.6
- viability (ATP), % of control: 91.3

A830005F24Rik (RIKEN cDNA A830005F24 gene) #2
- GFP, % of control: 65.4
- viability (ATP), % of control: 84.4

A830005F24Rik (RIKEN cDNA A830005F24 gene) #3
- GFP, % of control: 69.2
- viability (ATP), % of control: 94.9

Pramel48 (PRAME like 48) #1
- GFP, % of control: 56.7
- viability (ATP), % of control: 63.6

Pramel48 (PRAME like 48) #2
- GFP, % of control: 71.9
- viability (ATP), % of control: 35.4

Pramel48 (PRAME like 48) #3
- GFP, % of control: 101
- viability (ATP), % of control: 87.7

Hcn3 (hyperpolarization-activated, cyclic nucleotide-gated K+ 3) #1
- GFP, % of control: 122 (active)
- viability (ATP), % of control: 84.2

Hcn3 (hyperpolarization-activated, cyclic nucleotide-gated K+ 3) #2
- GFP, % of control: 136 (active)
- viability (ATP), % of control: 69.5

Hcn3 (hyperpolarization-activated, cyclic nucleotide-gated K+ 3) #3
- GFP, % of control: 111
- viability (ATP), % of control: 78.5

Bspry (B-box and SPRY domain containing) #1
- GFP, % of control: 79.8
- viability (ATP), % of control: 71.2

Bspry (B-box and SPRY domain containing) #2
- GFP, % of control: 110
- viability (ATP), % of control: 88.5
